The list does not hold the whole screen: it is rich in T/C values a quarter to a half above the control, in often repeated tests (any T/C) and in doses without a T/C. Further doses and runs are listed elsewhere. T/C gives the treated animals as a percentage of the vehicle group. Some entries give survivors of the animals treated and no T/C: the source holds a T/C of zero for them, seemingly a mark for toxic or unscored doses. Some survivor counts are full or nearly so, which does not show that the dose was tolerated: the source hardly ever lists a survival T/C far under the control, and the zero likely stands for such cases as well. Survivors were counted at the toxicity check, usually on the fifth day, unless a day is given; later deaths do not show. Schedules are NCI's codes, read here as Q, the interval in days (D) or hours (H), X, the number of doses. Some entries hold several experiments; their values stand side by side, smallest first. For survival time, this PubChem deposit counts one and a half times the control or more as active, and values a quarter to a half above the control carry no call in these data; other NCI protocols may use other cut-offs. Some T/C values carry the count of animals alive at the toxicity check (mostly the fifth day); where none is given, no animal had died by that day.

The assay concerns P388 leukemia ip, CD2F1 mice, survival T/C. The experiment in a line: NCI In Vivo Anticancer Drug Screen. Data for tumor model P388 Leukemia (intraperitoneal) in CD2F1 (CDF1) mice. The settings on record: T/C endpoint: median survival time, higher T/C = longer survival.
The mark [1] stands for this setting: dose: 12.5 mg/kg/injection, schedule: Q01DX009 (ip), vehicle: other.
The mark [2] stands for this setting: dose: 60.0 mg/kg/injection, schedule: Q01DX005 (ip), vehicle: saline with Tween-80.
[3] abbreviates: dose: 120.0 mg/kg/injection, schedule: Q01DX005 (ip), vehicle: saline with Tween-80.
Where [4] appears, read: dose: 240.0 mg/kg/injection, schedule: Q01DX005 (ip), vehicle: saline with Tween-80.
Where [5] appears, read: dose: 100.0 mg/kg/injection, schedule: Q01DX005 (ip), vehicle: Klucel (hydroxypropylcellulose) (HPC).
Where [6] appears, read: dose: 200.0 mg/kg/injection, schedule: Q01DX005 (ip), vehicle: Klucel (hydroxypropylcellulose) (HPC).
Where [7] appears, read: dose: 200.0 mg/kg/injection, schedule: Q04DX002 (ip), vehicle: saline with Tween-80.
Where [8] appears, read: dose: 400.0 mg/kg/injection, schedule: Q04DX002 (ip), vehicle: saline with Tween-80.
Setting [9] is: dose: 200.0 mg/kg/injection, schedule: Q01DX009 (ip), vehicle: saline with Tween-80.

`CCC[CH2][Sn](=[S])[CH2]CCC`: the T/C (dose: 3.13 mg/kg/injection, schedule: Q01DX009 (ip), vehicle: other) is 133 % of control and the T/C under setting [1] was 140 % of control. Further, the survivor count (dose: 6.25 mg/kg/injection, schedule: Q01DX009 (ip), vehicle: other) was 3 of 6; the survivor count under setting [1] is 0 of 6; the survivor count (dose: 12.5 mg/kg/injection, schedule: Q04DX003 (ip), vehicle: other) is on record as 4 of 6; the survivor count (dose: 25.0 mg/kg/injection, schedule: Q01DX009 (ip), vehicle: other) was 2 of 6; the survivor count (dose: 25.0 mg/kg/injection, schedule: Q04DX003 (ip), vehicle: other) is 4 of 6; the survivor count (dose: 50.0 mg/kg/injection, schedule: Q01DX009 (ip), vehicle: other) was 1 of 6. Besides, the survivor count by setting is: (dose: 50.0 mg/kg/injection, schedule: Q04DX003 (ip), vehicle: other) 0 of 6; (dose: 100.0 mg/kg/injection, schedule: Q01DX009 (ip), vehicle: other) 0 of 6.

On to `C[Si](CCCNCCN)(O[Si](C)(CCCNCCN)c1ccccc1)c1ccccc1` (stereo unspecified), for which the survivor count reads like this: under setting [2], 4 of 6; under setting [3], 6 of 6; under setting [4], 0 of 6.

Turning to `Cc1nc2[nH]cc(-c3ccccc3)c2c(=N)n1-c1ccccc1`, the survivor count was 6 of 6 under setting [5] and 6 of 6 under setting [6].

As for `COC1C(OC(N)=O)C(O)C(Oc2ccc3c(O)c(NC(=O)c4ccc(O)c(CC=C(C)C)c4)c(=O)oc3c2C)OC1(C)C` (stereo unspecified), under “dose: 400.0 mg/kg/injection, schedule: Q01DX009 (ip), vehicle: Klucel (hydroxypropylcellulose) (HPC)”, the survivor count is given as 0 of 6.

With `CC1(C)C2CCC([CH2][Hg][Cl])C1C2` (stereo unspecified), the T/C (dose: 8.33 mg/kg/injection, schedule: Q01DX009 (ip), vehicle: other) was 127 % of control. Moreover, the survivor count (dose: 12.5 mg/kg/injection, schedule: Q01DX009 (ip), vehicle: saline with Tween-80) was 4 of 6; the survivor count (dose: 18.7 mg/kg/injection, schedule: Q01DX009 (ip), vehicle: saline with Tween-80) is 0 of 6; the survivor count (dose: 18.75 mg/kg/injection, schedule: Q01DX009 (ip), vehicle: other) is on record as 2 of 6.

On to `Cn1c(=O)c2c(ncn2CCNC(c2ccccc2)c2ccc(Br)cc2)n(C)c1=O` (stereo unspecified), for which the survivor count reads like this: (dose: 50.0 mg/kg/injection, schedule: Q01DX005 (ip), vehicle: other) 0 of 5; (dose: 100.0 mg/kg/injection, schedule: Q01DX005 (ip), vehicle: other) 0 of 5; (dose: 200.0 mg/kg/injection, schedule: Q01DX005 (ip), vehicle: other) 0 of 5.

As to `CN(C)P1(=S)OCC(C(C)(C)C)CN1C` (stereo unspecified), under “dose: 400.0 mg/kg/injection, schedule: Q04DX003 (ip), vehicle: saline with Tween-80”, the survivor count is on record as 1 of 6.

As for `O=c1[nH]ncc(=S)[nH]1`, the survivor count (dose: 200.0 mg/kg/injection, schedule: Q01DX009 (ip), vehicle: suspension in saline) was 6 of 6.

Take `O=C1CC(=O)NP(=O)(Oc2ccccc2)N1`: the survivor count (dose: 400.0 mg/kg/injection, schedule: Q04DX002 (ip), vehicle: saline) is 4 of 6.

With `CCCCCN(CCCCC)c1ccc(/C=C/c2ccnc3ccccc23)cc1`, where the note is “dose: 100.0 mg/kg/injection, schedule: Q01DX009 (ip), vehicle: Klucel (hydroxypropylcellulose) (HPC)”, the T/C was 127 % of control [5 of 6 alive]. In addition, under “dose: 200.0 mg/kg/injection, schedule: Q01DX009 (ip), vehicle: Klucel (hydroxypropylcellulose) (HPC)”, the survivor count was 5 of 6.

Consider `COC(=O)C(C)NC(=O)C(CCSC)NC(=O)OC(C)(C)C` (stereo unspecified), for which the survivor count under setting [5] is reported as 3 of 5.

Turning to `OCC(O)C[S][Bi]([c]1ccccc1)[c]1ccccc1` (stereo unspecified), the survivor count (dose: 240.0 mg/kg/injection, schedule: Q01DX005 (ip), vehicle: Klucel (hydroxypropylcellulose) (HPC)) is 0 of 6.

Take `CCOC(=O)N(C)N=NCCCl`: the survivor count under setting [3] was 3 of 6 and the survivor count under setting [4] is 0 of 6.

Regarding `Fc1ccc(NP(=S)(Nc2ccc(F)cc2F)Nc2ccc(F)cc2F)c(F)c1`, the survivor count runs as follows: under setting [7], 0 of 6; under setting [8], 0 of 6.

For the molecule `Cc1cc(N/N=C/c2ccnc3ccccc23)c2cc3c(cc2n1)OCO3`, the survivor count by setting is: (dose: 50.0 mg/kg/injection, schedule: Q01DX005 (ip), vehicle: Klucel (hydroxypropylcellulose) (HPC)) 5 of 6; under setting [5], 5 of 6; under setting [6], 5 of 6.

For the molecule `CC[N+](C)(C)c1ccc(C(=C2C=CC(=[N+](C)C)C=C2)c2ccc(N(C)C)cc2)cc1`, the survivor count is recorded as 0 of 5 (dose: 50.0 mg/kg/injection, schedule: Q01DX005 (ip), vehicle: saline); 0 of 5 (dose: 100.0 mg/kg/injection, schedule: Q01DX005 (ip), vehicle: saline); 0 of 5 (dose: 200.0 mg/kg/injection, schedule: Q01DX005 (ip), vehicle: saline).

As to `Cc1cc(N=Nc2ccc(NC(=O)c3ccc([N+](=O)[O-])cc3)cc2C)ccc1N=Nc1ccc2cc(S(=O)(=O)O)cc(S(=O)(=O)O)c2c1`, the T/C (dose: 50.0 mg/kg/injection, schedule: Q01DX005 (ip), vehicle: saline with Tween-80) was 109, 113, 117 [5 of 6 alive], 120 % of control. For the same molecule, the survivor count is, setting by setting: (dose: 100.0 mg/kg/injection, schedule: Q01DX005 (ip), vehicle: saline with Tween-80) 3 of 6; (dose: 200.0 mg/kg/injection, schedule: Q01DX005 (ip), vehicle: saline with Tween-80) 2 of 6.

As for `CCC/C(=N\NC(N)=Nc1ccc(Cl)cc1)c1ccc(Cl)cc1`, the survivor count is 1 of 6 under setting [7] and 1 of 6 under setting [8].

Turning to `CC1=NOC(=O)C1N=Nc1ccc(Br)cc1C` (stereo unspecified), where the note is “dose: 400.0 mg/kg/injection, schedule: Q05DX002 (ip), vehicle: saline with Tween-80”, the survivor count was 4 of 6.

As to `CCOC(=O)C1OC(n2cnc3c(N)ncnc32)C(O)C1O` (stereo unspecified), the survivor count (dose: 50.0 mg/kg/injection, schedule: Q01DX009 (ip), vehicle: saline) is 6 of 6.

For the molecule `C[n+]1c(-c2ccc(/C=N/Nc3n[nH]c(=S)n3/N=C/c3ccc(-c4cn5ccsc5[n+]4C)cc3)cc2)cn2ccsc21`, the survivor count runs as follows: (dose: 3.75 mg/kg/injection, schedule: Q01DX005 (ip), vehicle: saline with Tween-80) 0 of 6; (dose: 7.5 mg/kg/injection, schedule: Q01DX005 (ip), vehicle: saline with Tween-80) 0 of 6; (dose: 15.0 mg/kg/injection, schedule: Q01DX005 (ip), vehicle: saline with Tween-80) 0 of 6; (dose: 30.0 mg/kg/injection, schedule: Q01DX005 (ip), vehicle: saline with Tween-80) 0 of 6; under setting [2], 0 of 6; under setting [3], 0 of 6. Under setting [4], the survivor count is 0 of 6.

Turning to `O=S(=O)(O)c1ccc(/C2=c3\cc/c([n-]3)=C(\c3ccc(S(=O)(=O)O)cc3)c3ccc([n-]3)/C(c3ccc(S(=O)(=O)O)cc3)=c3/cc/c([n-]3)=C(\c3ccc(S(=O)(=O)O)cc3)c3ccc2[n-]3)cc1.[Zn]`, the survivor count (dose: 7.8 mg/kg/injection, schedule: Q01DX009 (ip), vehicle: saline with Tween-80) is given as 6 of 6; the survivor count (dose: 31.25 mg/kg/injection, schedule: Q01DX009 (ip), vehicle: saline with Tween-80) is 6 of 6; the survivor count (dose: 62.5 mg/kg/injection, schedule: Q01DX009 (ip), vehicle: saline with Tween-80) was 5 of 6 and 6 of 6; the survivor count (dose: 125.0 mg/kg/injection, schedule: Q01DX009 (ip), vehicle: saline with Tween-80) was 3 of 6.

Turning to `c1ccc2sc(NC(Nc3nc4ccccc4s3)C34CC5CC(CC(C5)C3)C4)nc2c1`, the survivor count is, setting by setting: (dose: 100.0 mg/kg/injection, schedule: Q01DX009 (ip), vehicle: saline with Tween-80) 6 of 6; under setting [9], 6 of 6.

Take `CC(C)C(C#N)(C(=O)O)C(C)C`: the survivor count under setting [9] is recorded as 5 of 6.

For the origin of these results see PubChem BioAssay AID330 (DTP/NCI, 2004).
